Some of these results come from one statement about several compounds together.
How the values were obtained:
3T3-L1 cells [1] = assay: 3T3-L1 cell viability of single compounds separated from sea cucumber ovary extract; conditions: 2.5 μg/ml
3T3-L1 cells [2] = assay: Oil red O staining, single compounds of sea cucumber ovary extract; type: cell-based
Method: The differentiation-completed 3T3-L1 cells were fixed with 4% formaldehyde for 1 hour, and then fats were stained using a 0.5% Oil red O staining solution to confirm the degree of differentiation. For quantitative analysis of adipose differentiation, the dye stained in the cells was dissolved with 100% isopropyl alcohol and the absorbance was measured at 500 nm.
In order to investigate the effect on adipose differentiation of the 3T3-L1 cells of the single compound in the sea cucumber ovary extract, a total 8 of compounds were treated with a differentiation medium at a concentration of 2.5 and 5 μg/ml for 48 hours.

SMILES	cell viability (3T3-L1 cells [1])	fat accumulation (Oil red O staining) (3T3-L1 cells [2])
C=C(C)CCC[C@@]1(C)OC(=O)C23CC=C4C(CCC5C(C)(C)[C@@H](O[C@@H]6OCC(O[C@@H]7OC(CO)C(O)[C@H](O[C@@H]8OC(CO)C(O)[C@H](O)C8O)C7O)[C@H](O)C6O[C@@H]6OC(CO)C(O[C@@H]7OCC(O)[C@H](O[C@@H]8OC(CO)C(O)[C@H](OC)C8O)C7O)[C@H](O)C6O)CC[C@]45C)C2(C)CC(=O)C31 (stereo partly shown) [S5, holotoxin D1]	≥ 80%	fat accumulation was significantly reduced
C=C(C)CCC[C@@]1(C)OC(=O)C23CC=C4C(CCC5C(C)(C)[C@@H](O[C@@H]6OCC(O[C@@H]7OC(CO)C(O)[C@H](O[C@@H]8OC(CO)C(O)[C@H](O)C8O)C7O)[C@H](O)C6O[C@@H]6OC(C)C(O[C@@H]7OC(CO)C(O)[C@H](O[C@@H]8OC(CO)C(O)[C@H](OC)C8O)C7O)[C@H](O)C6O)CC[C@]45C)C2(C)CC(=O)C31 (stereo partly shown) [S6, holotoxin B]		fat accumulation was significantly reduced
C=C(C)CCC[C@@]1(C)OC(=O)C23CC=C4C(CCC5C(C)(C)[C@@H](O[C@@H]6OCC(O[C@@H]7OC(CO)C(O)[C@H](O[C@@H]8OC(CO)C(O)[C@H](OC)C8O)C7O)[C@H](O)C6O[C@@H]6OC(C)C(O[C@@H]7OC(CO)C(O)[C@H](O[C@@H]8OC(CO)C(O)[C@H](OC)C8O)C7O)[C@H](O)C6O)CC[C@]45C)C2(C)CC(=O)C31 (stereo partly shown) [S8, holotoxin A]		fat accumulation was significantly reduced

From patent US20240058392A1, “COMPOSITION COMPRISING SEA CUCUMBER GENITAL GLAND EXTRACT, COMPOUND DERIVED FROM SEA CUCUMBER OVARY EXTRACT, AND USE THEREOF” (BIOINFORMATICS & MOLECULAR DESIGN RESEARCH CENTER, priority 2020, published 2024)
